Measured values from article doi:10.1101/2022.10.25.513763.
Results are given in words; binding and its absence hold for the method and conditions named. In cells and extracts the contact can be indirect. Some entries that bind do so weakly or less than the wild type. Tags and fused reporters may be left off the sequences shown. Values belong to the molecule of their own block, whether it stands above or below them.

By UniProt entry, the sequences of proteins in these tests, tags left out.
UniProt Q01939, whole entry: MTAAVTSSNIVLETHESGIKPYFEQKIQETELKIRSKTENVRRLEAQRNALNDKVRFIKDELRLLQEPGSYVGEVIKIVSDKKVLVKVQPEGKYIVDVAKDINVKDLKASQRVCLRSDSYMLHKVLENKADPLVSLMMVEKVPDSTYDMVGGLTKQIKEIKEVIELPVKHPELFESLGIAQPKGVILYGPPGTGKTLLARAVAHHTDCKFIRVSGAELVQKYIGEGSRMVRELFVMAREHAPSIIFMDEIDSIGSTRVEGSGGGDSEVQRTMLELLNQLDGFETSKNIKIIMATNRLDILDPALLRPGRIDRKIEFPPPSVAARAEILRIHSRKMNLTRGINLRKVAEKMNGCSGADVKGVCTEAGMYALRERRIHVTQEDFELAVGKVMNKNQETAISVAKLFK

Experiments:
[1] = target: T1, FLAG-tagged Rpt1 (S. cerevisiae) (UniProt P33299); assay: co-IP
T1 sequence: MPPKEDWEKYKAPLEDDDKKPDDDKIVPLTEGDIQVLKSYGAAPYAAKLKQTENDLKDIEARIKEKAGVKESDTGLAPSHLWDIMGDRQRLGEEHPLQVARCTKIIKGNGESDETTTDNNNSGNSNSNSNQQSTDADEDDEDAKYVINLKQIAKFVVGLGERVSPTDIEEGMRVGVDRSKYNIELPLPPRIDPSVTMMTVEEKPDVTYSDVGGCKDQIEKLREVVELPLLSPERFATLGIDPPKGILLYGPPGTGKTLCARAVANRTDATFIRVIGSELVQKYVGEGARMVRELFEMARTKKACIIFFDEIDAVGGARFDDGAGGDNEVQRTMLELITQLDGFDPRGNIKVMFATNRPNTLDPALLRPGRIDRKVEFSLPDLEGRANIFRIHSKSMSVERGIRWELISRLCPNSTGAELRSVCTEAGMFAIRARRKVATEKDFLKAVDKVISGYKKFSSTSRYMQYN

[2] = target: T2, His6-tagged Rpt3 (S. cerevisiae), P33298; assay: pull-down; conditions: remark: other sources report otherwise
T2 chain: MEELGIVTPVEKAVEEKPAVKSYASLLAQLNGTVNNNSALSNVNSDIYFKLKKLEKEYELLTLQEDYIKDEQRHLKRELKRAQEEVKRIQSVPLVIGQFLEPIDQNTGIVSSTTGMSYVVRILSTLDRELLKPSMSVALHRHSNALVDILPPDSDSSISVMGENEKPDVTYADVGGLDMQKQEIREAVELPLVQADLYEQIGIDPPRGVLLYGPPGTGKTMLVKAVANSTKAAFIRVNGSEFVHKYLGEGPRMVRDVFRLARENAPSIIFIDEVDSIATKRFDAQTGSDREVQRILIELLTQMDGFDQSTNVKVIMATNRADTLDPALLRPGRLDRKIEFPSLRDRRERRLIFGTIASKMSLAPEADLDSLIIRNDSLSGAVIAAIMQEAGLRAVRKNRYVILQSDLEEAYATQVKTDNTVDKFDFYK

[3] = target: T3, Rpn11 harboring TeV-ProA affinity tag (S. cerevisiae), P43588; assay: pull-down; conditions: remark: other sources report otherwise
T3 chain: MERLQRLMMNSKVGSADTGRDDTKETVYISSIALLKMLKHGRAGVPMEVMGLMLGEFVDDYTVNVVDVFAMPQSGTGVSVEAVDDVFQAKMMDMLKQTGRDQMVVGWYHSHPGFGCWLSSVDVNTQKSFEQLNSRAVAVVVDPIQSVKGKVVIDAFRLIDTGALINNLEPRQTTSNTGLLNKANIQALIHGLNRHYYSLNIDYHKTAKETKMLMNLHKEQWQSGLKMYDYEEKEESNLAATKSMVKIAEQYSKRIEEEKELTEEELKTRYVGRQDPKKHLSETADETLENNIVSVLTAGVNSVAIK

binding [1]: binds
Molecule: Rpt6 (from UniProt Q01939 1-405)

binding [2]: binds
B1: Nas2, P40555 1-220 (protein)
chain: MEEEELSKLLANVKIDPSLTSRISQIDSFKLSELMVLKTDIETQLEAYFSVLEQQGIGMDSALVTPDGYPRSDVDVLQVTMIRKNVNMLKNDLNHLLQRSHVLLNQHFDNMNVKSNQDARRNNDDQAIQYTIPFAFISEVVPGSPSDKADIKVDDKLISIGNVHAANHSKLQNIQMVVMKNEDRPLPVLLLREGQILKTSLTPSRNWNGRGLLGCRIQEL

binding [3]: no binding
B2: Nas2 (endogenous, yeast), P40555 1-220 (protein)
chain: B1 chain
